Data as given in PubChem BioAssay AID1259424 (University of Nebraska Medical Center, 2018)
The deposit covers about 14,000 reagents; this is an unselected part. 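Higher correlation or smaller distance means closer resemblance to KSR1 loss; control wells, including KSR1 knockdowns, recur on many plates.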 Not all columns of the deposit are shown. The record does not give: the time to read-out.

Purpose: 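Find knockdowns that reproduce the expression shifts seen after KSR1 loss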 (primary screen)
Cell system: human HCT116 colon cancer cells
Reagent: siRNA pool against human genes, 50 nM
Measurement: 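Log2 levels of six mRNAs (branched-DNA multiplex), adjusted by two reference genes and the non-targeting median, then scored against the average KSR1 knockdown pattern as Pearson r and euclidean distance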
Reading the numbers: mean correlation with KSR1 profile: higher = expression change more like KSR1 knockdown

target gene	mean correlation with KSR1 profile
HLA-G (major histocompatibility complex, class I, G)	-0.116
CA4 (carbonic anhydrase 4)	-0.48
RHOU (ras homolog family member U)	-0.0434
BOLA1 (bolA family member 1)	0.295
HPS5 (HPS5 biogenesis of lysosomal organelles complex 2 subunit 2)	-0.123
FAM217B (family with sequence similarity 217 member B)	-0.186
CDKAL1 (CDKAL1 threonylcarbamoyladenosine tRNA methylthiotransferase)	-0.931
RHBDD2 (rhomboid domain containing 2)	0.377
NRN1 (neuritin 1)	-0.403
APPL2	0.0212
DDAH2 (DDAH family member 2, ADMA-independent)	-0.525
MAML3 (mastermind like transcriptional coactivator 3)	-0.0484
HHIPL2 (HHIP like 2)	0.459
ROBO4 (roundabout guidance receptor 4)	-0.195
SLC45A3	0.295
MAP3K3 (mitogen-activated protein kinase kinase kinase 3)	0.223
CD82 (CD82 molecule)	-0.38
GOLPH3L (golgi phosphoprotein 3 like)	0.468
TRPV3	-0.525
REEP1 (receptor accessory protein 1)	-0.37
ELAVL4 (ELAV like RNA binding protein 4)	-0.538
GPC1 (glypican 1)	-0.376
PDE8A (phosphodiesterase 8A)	-0.702
GKN1 (gastrokine 1)	-0.577
ITGA2B (integrin subunit alpha 2b)	-0.136
CIT (citron rho-interacting serine/threonine kinase)	0.716
NPPA (natriuretic peptide A)	-0.0211
TSHZ1 (teashirt zinc finger homeobox 1)	0.168
TDRD3 (tudor domain containing 3)	0.68
CRY1 (cryptochrome circadian regulator 1)	0.918
RNF125 (ring finger protein 125)	-0.615
CHI3L2 (chitinase 3 like 2)	-0.217
KRTAP9-2 (keratin associated protein 9-2)	0.334
LAGE3 (L antigen family member 3)	-0.0341
STAP2 (signal transducing adaptor family member 2)	0.472
GMIP (GEM interacting protein)	0.201
CCL3L1 (C-C motif chemokine ligand 3 like 1)	-0.84
ENPP5	-0.273
KCNB1 (potassium voltage-gated channel subfamily B member 1)	-0.0355
CTH (cystathionine gamma-lyase)	-0.907
RAB39A (RAB39A, member RAS oncogene family)	-0.316
NRIP1 (nuclear receptor interacting protein 1)	0.432
PTPRB (protein tyrosine phosphatase receptor type B)	0.118
SMO (smoothened, frizzled class receptor)	0.432
GCK (glucokinase)	-0.0738
RRBP1 (ribosome binding protein 1)	0.0324
SLC17A9	-0.7
FGL1 (fibrinogen like 1)	-0.604
AP3S2 (adaptor related protein complex 3 subunit sigma 2)	-0.324
SEPTIN8 (septin 8)	0.19

Reprinted from the listing for reference:
target gene	mean correlation with KSR1 profile
GKN1 (gastrokine 1)	-0.577
ITGA2B (integrin subunit alpha 2b)	-0.136
CIT (citron rho-interacting serine/threonine kinase)	0.716
NPPA (natriuretic peptide A)	-0.0211
TSHZ1 (teashirt zinc finger homeobox 1)	0.168
TDRD3 (tudor domain containing 3)	0.68
